In patent publication US20190194309A1 (AGENCY FOR SCIENCE TECHNOLOGY AND RESEARCH, published 2019):
Changes are numbered by the printed parent chain. No constants are given. Whether binding was seen depends on the method and setting. Some binding calls cover weakened binding; strength is not graded here.

Protein sequences, listed by entry. Tags and fused reporters are not part of them. Residues count along the entry.
UniProt Q04912, residues 25-1400: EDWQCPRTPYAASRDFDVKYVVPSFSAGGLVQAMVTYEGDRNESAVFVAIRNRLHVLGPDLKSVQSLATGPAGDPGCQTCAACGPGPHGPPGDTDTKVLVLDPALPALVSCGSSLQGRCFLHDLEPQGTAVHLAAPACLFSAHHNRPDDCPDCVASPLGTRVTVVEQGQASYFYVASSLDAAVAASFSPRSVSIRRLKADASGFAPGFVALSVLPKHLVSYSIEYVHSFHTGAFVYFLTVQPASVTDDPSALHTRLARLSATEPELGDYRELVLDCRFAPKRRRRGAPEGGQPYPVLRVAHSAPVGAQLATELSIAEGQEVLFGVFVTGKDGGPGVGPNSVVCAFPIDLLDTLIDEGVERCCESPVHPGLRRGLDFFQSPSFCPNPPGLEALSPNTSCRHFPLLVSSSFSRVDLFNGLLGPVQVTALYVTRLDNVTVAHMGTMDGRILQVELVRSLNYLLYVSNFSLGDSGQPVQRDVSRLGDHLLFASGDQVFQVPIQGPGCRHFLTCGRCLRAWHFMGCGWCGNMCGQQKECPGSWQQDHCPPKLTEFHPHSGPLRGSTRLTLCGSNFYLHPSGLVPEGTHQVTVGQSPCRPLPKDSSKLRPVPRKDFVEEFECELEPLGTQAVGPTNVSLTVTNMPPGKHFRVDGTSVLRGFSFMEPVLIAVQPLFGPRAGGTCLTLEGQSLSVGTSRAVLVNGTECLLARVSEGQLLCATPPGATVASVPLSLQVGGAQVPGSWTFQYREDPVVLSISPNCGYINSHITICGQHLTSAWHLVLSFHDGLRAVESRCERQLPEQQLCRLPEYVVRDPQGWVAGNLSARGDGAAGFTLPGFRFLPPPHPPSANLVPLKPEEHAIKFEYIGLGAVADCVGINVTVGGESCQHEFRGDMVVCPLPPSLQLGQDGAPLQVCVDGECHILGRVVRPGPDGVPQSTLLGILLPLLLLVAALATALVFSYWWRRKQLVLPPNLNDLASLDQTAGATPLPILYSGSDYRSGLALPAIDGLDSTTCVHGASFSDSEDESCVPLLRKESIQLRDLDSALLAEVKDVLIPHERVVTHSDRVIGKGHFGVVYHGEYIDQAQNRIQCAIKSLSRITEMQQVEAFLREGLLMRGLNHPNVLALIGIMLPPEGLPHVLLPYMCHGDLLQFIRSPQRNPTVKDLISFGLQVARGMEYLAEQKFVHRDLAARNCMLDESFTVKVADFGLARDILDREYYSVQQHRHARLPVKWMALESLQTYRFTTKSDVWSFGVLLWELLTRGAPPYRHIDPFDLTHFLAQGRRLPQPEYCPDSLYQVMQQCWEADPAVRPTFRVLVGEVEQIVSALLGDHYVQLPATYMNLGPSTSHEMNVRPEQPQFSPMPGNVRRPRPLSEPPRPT

B1: 6E6 (antibody, V domains shown)
VH: EVKLQQSGTVLARPGTSVKMSCKASGYIFTSYWMHWIKERPGQGLEWIGAIYPGNNDTSTNQKFKGKAKLTAVTSTSTAYLELSSLTNEDSAVYYCTRDGFYPFAYWGQGTLVTVSA
VL: DIVLTQTPLSLPVSLGDQASISCRSSQSLVYINGDTYFHWYLQKPGQSPKLLIYRVSNRFSGVPDRFSGSGSGTDFTLKISRVEAEDLGVYFCSQTKHVPYTFGGGTKLEMK
B2: 3G4 (antibody, V domains shown)
VH: B1 VH with K3Q, Q5E, Q6E, T16A, E39Q, N56S, G66D, Y94F, F101Y
VL: B1 VL with T7S
B3: 3E1 (antibody, V domains shown)
VH: DVMLVESGGGLVQPGGSMKLSCVASGFSFSDYWMNWVRQSPEKGLEWVAEIRLKSSNYATHYAESVKGRFTISRDDSESSVYLQMNNLRPEDTGFYYCTRGDYWGQGTSVTVSS
VL: DIVMTQSPATLSVTPGDGVSLSCRASQSINNNLHWYQQKSHESPRLLIKFASQSISGIPSRFSGSGSGTDFTLSINSVETEDFGMYFCQQSNSWPLTFGAGTKLELK
B4: 5A5 (antibody, V domains shown)
VH: LEVKLEQSGPGLVKPSQSLSLTCTVTDYSITSDYAWNWIRQFPGNKLEWMGYILYSGSTTYNPSLKSRVSITRDTSKNQFFLHLDSVTTEDAATYYCASLGRGGSWGQGTTLAVSS
VL: DILMTQTPLSLPVSLGDQASISCRSSQSIVHSNGNTYLEWYLQKPGQSPKLLIYKVSNRFSGVPDRFTGSGSGTDFTLKISRVEAEDLGIYYCFQGSHAPWTFGGGTKLEIR
B5: 5B9 (antibody, V domains shown)
VH: EVQLQQPGAELVRPGSSVKISCKASGYEFSKYWMNWVKQRPGQGLEWIGQIFPGDGDINYNGKFKGKATLTADKSSSTAYMQLSSLTSEESAVYFCARWYYGSNYAMDYWGQGTSVTVSS
VL: DIVMTQTPSSLAVSVGEKITMSCKSSQSLLYSSNQKNYLAWYQQKPGQSPKLLIYWASTRESGVPDRFTGSGSGTDFTLTISSVKAEDLAVYYCQQYYAYRTFGGGTKLEIK

Key:
[1] = target: Macrophage stimulating protein receptor (RON - Recepteur d' Origine Nantais), human (human) (UniProt Q04912); assay: Western blot of cell line lysates
[2] = target: Macrophage stimulating protein receptor (RON - Recepteur d' Origine Nantais), human (human) (UniProt Q04912); assay: immunofluorescence on RON transfected H1299 cells
[3] = target: Macrophage stimulating protein receptor (RON - Recepteur d' Origine Nantais), human (human) (UniProt Q04912); assay: immunofluorescence on live cells (endocytosis)

Binder | binding [1] | binding [2] | binding [3]
B1 | binds | binds | –
B2 | binds | binds | –
B3 | – | binds | –
B4 | – | binds | binds
B5 | – | binds | –
